According to PubChem BioAssay AID1671190 (National Center for Advancing Translational Sciences (NCATS), 2021):
Several values for one entry are separate records, joined by “and”; a condition that tells them apart may be missing. Equal entries are not always repeated. Among all 580,000 compounds or so, about 6,100 (1.1%) were called active. Inconclusive means that the source gave no clear call. Such entries were picked first, then a sample of the others. Calls come from the whole dose curve; as a rule, active = well fitted inhibition curve with a large enough effect; inconclusive = small, poorly fitted or top-dose-only effect, or another doubt; inactive = no such curve, though single readings can be large or run the other way. A potency beside an inconclusive call is a rough fit, not a confirmed value.

By UniProt entry, the sequences of proteins in these tests, tags left out. Where a name states a change or a piece, a line headed by the entry shows the natural chain unless it says otherwise.
UniProt P18054: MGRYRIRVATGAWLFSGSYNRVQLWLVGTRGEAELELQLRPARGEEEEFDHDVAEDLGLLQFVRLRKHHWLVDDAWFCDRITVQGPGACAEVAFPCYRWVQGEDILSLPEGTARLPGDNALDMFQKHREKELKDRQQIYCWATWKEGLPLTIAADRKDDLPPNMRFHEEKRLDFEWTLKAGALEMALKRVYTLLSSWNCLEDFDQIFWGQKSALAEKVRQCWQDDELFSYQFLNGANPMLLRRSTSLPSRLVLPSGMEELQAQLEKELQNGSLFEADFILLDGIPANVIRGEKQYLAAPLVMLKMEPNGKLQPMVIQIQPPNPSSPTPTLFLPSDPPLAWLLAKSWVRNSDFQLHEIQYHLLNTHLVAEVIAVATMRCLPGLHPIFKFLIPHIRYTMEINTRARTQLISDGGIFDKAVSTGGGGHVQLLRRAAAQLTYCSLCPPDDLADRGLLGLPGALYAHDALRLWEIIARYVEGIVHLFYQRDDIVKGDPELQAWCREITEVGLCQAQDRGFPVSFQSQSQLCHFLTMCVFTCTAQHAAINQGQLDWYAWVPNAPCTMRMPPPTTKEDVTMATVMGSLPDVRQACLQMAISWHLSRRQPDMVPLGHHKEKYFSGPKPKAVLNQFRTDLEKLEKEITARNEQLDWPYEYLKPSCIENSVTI

The compounds below were run against Polyunsaturated fatty acid lipoxygenase ALOX12 (Homo sapiens) (UniProt P18054) (assay: Primary qHTS assay for inhibitors of human arachidonate 12S-lipoxygenase (ALOX12): Round 2). Conditions: purified 12hLO, xylenol orange hydroperoxide absorbance; activity change, negative = inhibition: at 108 µM (top of the series) unless noted.
Outline: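 Hydroperoxide product was detected by ferrous iron/xylenol orange as the 573 to 405 nm absorbance ratio. Arachidonic acid at 40 uM (final) was turned over for 30 min at room temperature by 150 nM human 12hLO, pH 7.0 Hepes buffer, after 15 min compound preincubation.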
% is set by controls: 0 for no effect and ±100 for the full control effect; potency is the fitted concentration of half-maximal effect.

| SMILES | Potency | activity change, negative = inhibition |
| --- | --- | --- |
| NC(=O)CC(NC(=O)c1ccc(Br)cc1)c1ccc(N2CCN(c3ccc(F)cc3)CC2)c([N+](=O)[O-])c1 (centres undefined) | inconclusive: 0.398 µM [inhibitor, full curve, poor fit] |  |
| NS(=O)(=O)c1ccc(NC(c2ccccc2)c2ccccc2)c([N+](=O)[O-])c1 | inconclusive: 89.1 µM [inhibitor, single point] |  |
| Cc1ccc(-c2nc(CC(=O)NC3CCN(Cc4ccccc4)CC3)cs2)cc1 | inconclusive: 5.01 µM [inhibitor, single point] |  |
| S=c1nc(-c2cc(Cl)ccc2Cl)[nH][nH]1 | active: 10 µM |  |
| Cc1c(C)c(C)c(C(=O)O)c(C)c1C |  | inactive: 0.672% |
| COc1ccc(NC(=O)CSCc2cc(=O)c3cc(Cl)ccc3[nH]2)cc1 | inconclusive: 141 µM [inhibitor, partial curve, poor fit] |  |
| O=C(O)CSc1c2ccccc2cc2ccccc12 | inconclusive: 44.7 µM [inhibitor, partial curve, poor fit] |  |
| Cc1nn2c(=O)cc(CSCC(=O)Nc3cccc4ccccc34)nc2s1 |  | inactive: 34.9% |
| CCOc1ccc(-c2n[nH]c(C(=O)NN)c2C)cc1 |  | inactive: 14.4% |
| CCOc1cc(C2N=C(N)Nc3nc4cc5c(cc4n32)OCCCO5)cc(Cl)c1O (centres undefined) | inconclusive: 44.7 µM [inhibitor, partial curve, poor fit] |  |
| CCCc1nnc(NC(=O)CCC(=O)O)s1 |  | inactive: -6.18% [at 57.4 µM] |
| O=C(Nc1ccc2c(c1)OCCO2)c1cc2sccc2n1Cc1ccccc1 |  | inactive: 0% |
| CCN(CC(=O)Nc1c(F)cccc1F)C(=O)CCC(=O)c1ccc(F)cc1 |  | inactive: -22.1% |
| OCC[C@@H]1NCc2cc(CO)cc(-c3ccccc3)c21 | inconclusive: 50.1 µM [inhibitor, partial curve, poor fit] |  |
| CCOc1ccc(C2CC(=O)Nc3c2c(=O)[nH]c2ncnn32)cc1 (centres undefined) | inconclusive: 17.8 µM [inhibitor, full curve] |  |
| CS(=O)(=O)N1Cc2cc(C(=O)NCC3CC3)nc(-c3cccc(-c4cccnc4)c3)c2[C@H]1CCO | inconclusive: 89.1 µM [inhibitor, partial curve, poor fit] |  |
| CCN1C(=O)/C(=C2/C=Cc3cc(C)ccc3N2CC)N(C)C1=S |  | inactive: -12.4% |
| COC(=O)CNC(=O)c1cc(-c2cnccc2Cl)c2cccn2n1 | inconclusive: 70.8 µM [inhibitor, partial curve, poor fit] |  |
| O=C(N[C@@H](C(=O)NCc1cccnc1)c1ccccc1)C(c1ccccc1)c1ccccc1 |  | inactive: -17.5% |
| COc1ccc(-c2cc(C(=O)Nc3c(C)nn(Cc4ccccc4C)c3C)no2)cc1 |  | inactive: -11% |
| NC(=O)c1ccc(-c2nc(-c3ccc4c(c3)OCCO4)c(-c3ccccn3)[nH]2)cc1 |  | inactive: 14% [at 57.4 µM] |
| O=C(CSc1nnc(-c2cccs2)o1)c1cccs1 |  | inactive: 1.61% |

Random excerpt: three entries already listed, in no set order.

| SMILES | Potency | activity change, negative = inhibition |
| --- | --- | --- |
| CCOc1ccc(-c2n[nH]c(C(=O)NN)c2C)cc1 |  | inactive: 14.4% |
| COC(=O)CNC(=O)c1cc(-c2cnccc2Cl)c2cccn2n1 | inconclusive: 70.8 µM [inhibitor, partial curve, poor fit] |  |
| Cc1nn2c(=O)cc(CSCC(=O)Nc3cccc4ccccc34)nc2s1 |  | inactive: 34.9% |

Next results follow.

| SMILES | Potency | activity change, negative = inhibition |
| --- | --- | --- |
| CCN(CC)c1ccc(/C=N/Nc2nc3ccccc3[nH]2)c(O)c1 | inconclusive: 39.8 µM [inhibitor, partial curve, poor fit] |  |
| O=C(c1cccc(O)c1)N1CC(CNc2ccccc2)C2(C1)CN(c1ccccc1)C2 (centres undefined) |  | inactive: -6.84% [at 176 µM] |
| O=C(CN1CCN(c2ccc(O)cc2)CC1)NCC(=O)Nc1ccc(F)c(F)c1F | inconclusive: 28.2 µM [inhibitor, partial curve, poor fit] |  |
| Cc1ccc2[nH]c3c(=O)n(CC(=O)NCCCN4CCN(c5ccc(F)cc5)CC4)ncc3c2c1 | inactive and inconclusive: 158 µM [inhibitor, partial curve, poor fit] |  |
| O=C1Nc2ccc(Br)cc2/C1=C/C(=O)c1ccccc1 | inconclusive: 50.1 µM [inhibitor, partial curve, poor fit] |  |
| COc1ccc(Cc2c(C3CCCCC3)nc3ccc(Cl)cn23)c(C)c1 | inconclusive: 44.7 µM [inhibitor, partial curve, poor fit] |  |
| CNC(=O)CCn1ncc2cc(OCc3ccccc3-c3cc(F)ccc3OC(C)C)ccc21 | inconclusive: 70.8 µM [inhibitor, single point] |  |
| Cc1onc(-c2ccccc2)c1C(=O)NNC(=S)NC(=O)c1ccc(Cl)cc1Cl | inconclusive: 50.1 µM [inhibitor, partial curve] |  |
| Cc1cccc(-n2nnnc2SCc2cc(=O)oc3cc(O)ccc23)c1 | inconclusive: 70.8 µM [inhibitor, partial curve, poor fit] |  |
| O=C(c1ccc(F)cc1)N1CCC(Cc2nc(-c3ccc(F)cc3)no2)CC1 |  | inactive: 11.9% |
| Cc1ccc(C(=O)n2nc(-c3ccc(C)cc3)nc2N)cc1 |  | inactive: -7.36% |
| COc1ccc2oc(-c3ccc(C)c(NC(=O)C(C)C)c3)nc2c1 |  | inactive: 22.4% |
| CCc1ccc(C2C(C#N)=C(N)OC3=C2S(=O)(=O)N(Cc2ccccc2C)c2ccccc23)cc1 (centres undefined) | inconclusive: 7.94 µM [inhibitor, full curve, poor fit] |  |
| CCOc1ccc(Nc2nc(N)nc(CCl)n2)cc1 |  | inactive: 146% |
| COc1ccc(Cl)cc1-c1noc([C@@H]2O[C@H](CO)[C@H](O)[C@H](O)[C@H]2O)n1 | inconclusive: 100 µM [inhibitor, partial curve, poor fit] |  |
| CCC(C)NS(=O)(=O)c1cccc2cc(C)cnc12 (centres undefined) | inconclusive: 100 µM [inhibitor, single point] |  |
| CCN(CC)C(=O)OCCc1cc2ccccc2c(=O)o1 | inconclusive: 44.7 µM [inhibitor, partial curve, poor fit] |  |
| CCN(C1CCOCC1)C1CN(C(=O)c2cnn(C)c2)C1 |  | inactive: 21.7% |
| CCOc1ccc2c(C)nc(NC3=NC(C)(C)C=C(C)N3)nc2c1 | inconclusive: 79.4 µM [inhibitor, partial curve, poor fit] |  |
| O=C(Nc1cccc(Cl)c1)Nc1ccc2nc(-c3ccc(F)c(Cl)c3)nn2c1 | inconclusive: 44.7 µM [inhibitor, partial curve, poor fit] |  |
| O=C(NCc1ccncc1)c1cc(-c2ccncc2)nc2ccccc12 | inconclusive: 112 µM [inhibitor, single point] |  |
| Cc1cc(C)cc(N(CC(=O)Nc2ccc(C)cc2Cl)S(=O)(=O)c2c(C)[nH]c(=O)[nH]c2=O)c1 | inconclusive: 126 µM [inhibitor, single point] |  |
